Laboratory results as given in PMC10704431, “A complex with poly(A)-binding protein and EWS facilitates the transcriptional function of oncogenic ETS transcription factors in prostate cells” (The Journal of Biological Chemistry, 2023).
These are yes or no findings as the source states them, for the method shown. A result given as binding can be weak or reduced; the word gives no strength. Where a sequence is shown, tags or fusion partners need not be part of it.

Biological target: His-ERG (purified full-length ERG)
Assay: pull-down; purified His-tagged protein (ERG, other ETS factors or PABPC1) on nickel / His isolation magnetic beads; purified GST-tagged protein added; NP-40 lysis buffer (50 mM Tris-HCl pH 7.4, 250 mM NaCl, 5 mM EDTA, 50 mM NaF, 1% NP-40) with BSA, 4 °C, 2 h; immunoblot; both purified

B1: GST-EWS 1 to 355 (ntEWS) (domain or fragment, UniProt Q01844 1-355)
chain: MASTDYSTYSQAAAQQGYSAYTAQPTQGYAQTTQAYGQQSYGTYGQPTDVSYTQAQTTATYGQTAYATSYGQPPTGYTTPTAPQAYSQPVQGYGTGAYDTTTATVTTTQASYAAQSAYGTQPAYPAYGQQPAATAPTRPQDGNKPTETSQPQSSTGGYNQPSLGYGQSNYSYPQVPGSYPMQPVTAPPSYPPTSYSSTQPTSYDQSSYSQQNTYGQPSSYGQQSSYGQQSSYGQQPPTSYPPQTGSYSQAPSQYSQQSSSYGQQSSFRQDHPSSMGVYGQESGGFSGPGENRSMSGPDNRGRGRGGFDRGGMSRGGRGGGRGGMGSAGERGGFNKPGGPMDEGPDLDLGPPVDPD
For B1, the binding was “binds”.
